Reference: the supplement of paper PMC10849652
The list shows a part of the results.

The chains behind the UniProt entries cited, without tags or fusion partners. Where a name states a change or a piece, a line headed by the entry shows the natural chain unless it says otherwise.
UniProt P51606: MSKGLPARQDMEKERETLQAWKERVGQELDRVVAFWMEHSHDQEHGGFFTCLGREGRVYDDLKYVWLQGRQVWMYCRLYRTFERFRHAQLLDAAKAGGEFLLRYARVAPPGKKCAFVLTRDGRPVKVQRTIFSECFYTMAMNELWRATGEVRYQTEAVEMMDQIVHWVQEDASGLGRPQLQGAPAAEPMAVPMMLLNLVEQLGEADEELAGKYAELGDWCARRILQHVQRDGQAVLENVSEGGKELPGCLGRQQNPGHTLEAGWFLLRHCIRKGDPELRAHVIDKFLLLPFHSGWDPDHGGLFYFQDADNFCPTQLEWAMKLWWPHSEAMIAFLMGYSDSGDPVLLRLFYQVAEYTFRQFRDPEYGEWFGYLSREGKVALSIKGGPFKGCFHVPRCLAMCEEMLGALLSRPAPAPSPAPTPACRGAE
UniProt Q8WVD3: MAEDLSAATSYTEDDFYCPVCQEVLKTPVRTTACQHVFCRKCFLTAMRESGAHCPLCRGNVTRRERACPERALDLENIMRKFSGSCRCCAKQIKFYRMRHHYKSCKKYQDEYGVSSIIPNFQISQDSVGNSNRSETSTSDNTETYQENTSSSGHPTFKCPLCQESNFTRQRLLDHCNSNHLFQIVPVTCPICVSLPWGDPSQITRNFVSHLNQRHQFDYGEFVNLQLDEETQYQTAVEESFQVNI
UniProt Q9NTX7: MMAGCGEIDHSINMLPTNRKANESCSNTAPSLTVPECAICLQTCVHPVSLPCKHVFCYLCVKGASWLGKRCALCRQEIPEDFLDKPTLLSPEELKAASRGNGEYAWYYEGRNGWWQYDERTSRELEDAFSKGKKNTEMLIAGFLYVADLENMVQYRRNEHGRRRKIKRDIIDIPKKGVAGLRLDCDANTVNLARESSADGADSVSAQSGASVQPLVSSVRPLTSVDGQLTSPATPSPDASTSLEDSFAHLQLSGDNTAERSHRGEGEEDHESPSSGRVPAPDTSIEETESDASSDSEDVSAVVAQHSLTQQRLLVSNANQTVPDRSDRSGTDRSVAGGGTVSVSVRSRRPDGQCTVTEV
UniProt Q96A37: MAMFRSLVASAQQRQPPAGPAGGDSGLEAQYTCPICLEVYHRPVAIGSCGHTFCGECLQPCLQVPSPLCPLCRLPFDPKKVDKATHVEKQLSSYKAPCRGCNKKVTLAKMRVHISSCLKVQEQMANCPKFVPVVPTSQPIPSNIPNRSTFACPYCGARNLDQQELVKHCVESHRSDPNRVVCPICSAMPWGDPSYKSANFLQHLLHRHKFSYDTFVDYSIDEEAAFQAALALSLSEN
UniProt Q9UKL0, whole entry, looked up: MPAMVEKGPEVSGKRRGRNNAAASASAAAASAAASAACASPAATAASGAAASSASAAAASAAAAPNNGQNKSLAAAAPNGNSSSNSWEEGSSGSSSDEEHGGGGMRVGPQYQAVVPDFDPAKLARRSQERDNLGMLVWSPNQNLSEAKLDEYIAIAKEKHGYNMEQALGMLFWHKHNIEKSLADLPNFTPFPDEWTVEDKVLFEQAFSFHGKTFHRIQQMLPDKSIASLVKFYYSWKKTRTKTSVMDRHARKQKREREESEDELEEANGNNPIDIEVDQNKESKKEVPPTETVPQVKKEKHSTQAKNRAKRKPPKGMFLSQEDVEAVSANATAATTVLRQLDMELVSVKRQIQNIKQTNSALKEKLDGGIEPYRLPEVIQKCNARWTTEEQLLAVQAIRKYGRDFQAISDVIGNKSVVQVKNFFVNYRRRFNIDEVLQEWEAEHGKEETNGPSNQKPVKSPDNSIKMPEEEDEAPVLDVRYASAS
UniProt P08134, whole entry, looked up: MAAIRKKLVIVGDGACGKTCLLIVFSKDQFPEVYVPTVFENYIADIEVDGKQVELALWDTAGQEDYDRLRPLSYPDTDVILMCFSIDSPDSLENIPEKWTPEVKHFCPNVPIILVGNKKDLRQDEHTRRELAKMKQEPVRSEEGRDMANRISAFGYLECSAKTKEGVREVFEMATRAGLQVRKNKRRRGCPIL
UniProt Q9H920: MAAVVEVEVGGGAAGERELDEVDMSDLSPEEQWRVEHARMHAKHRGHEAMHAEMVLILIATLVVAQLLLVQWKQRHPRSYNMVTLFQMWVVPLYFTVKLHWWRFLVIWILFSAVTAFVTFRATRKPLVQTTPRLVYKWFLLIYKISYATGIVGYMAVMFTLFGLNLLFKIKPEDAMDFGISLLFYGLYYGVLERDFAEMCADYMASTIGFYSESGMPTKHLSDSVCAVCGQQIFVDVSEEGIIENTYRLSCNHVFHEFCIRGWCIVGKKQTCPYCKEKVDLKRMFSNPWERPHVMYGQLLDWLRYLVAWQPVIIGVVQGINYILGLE
UniProt Q5VTR2, whole entry, looked up: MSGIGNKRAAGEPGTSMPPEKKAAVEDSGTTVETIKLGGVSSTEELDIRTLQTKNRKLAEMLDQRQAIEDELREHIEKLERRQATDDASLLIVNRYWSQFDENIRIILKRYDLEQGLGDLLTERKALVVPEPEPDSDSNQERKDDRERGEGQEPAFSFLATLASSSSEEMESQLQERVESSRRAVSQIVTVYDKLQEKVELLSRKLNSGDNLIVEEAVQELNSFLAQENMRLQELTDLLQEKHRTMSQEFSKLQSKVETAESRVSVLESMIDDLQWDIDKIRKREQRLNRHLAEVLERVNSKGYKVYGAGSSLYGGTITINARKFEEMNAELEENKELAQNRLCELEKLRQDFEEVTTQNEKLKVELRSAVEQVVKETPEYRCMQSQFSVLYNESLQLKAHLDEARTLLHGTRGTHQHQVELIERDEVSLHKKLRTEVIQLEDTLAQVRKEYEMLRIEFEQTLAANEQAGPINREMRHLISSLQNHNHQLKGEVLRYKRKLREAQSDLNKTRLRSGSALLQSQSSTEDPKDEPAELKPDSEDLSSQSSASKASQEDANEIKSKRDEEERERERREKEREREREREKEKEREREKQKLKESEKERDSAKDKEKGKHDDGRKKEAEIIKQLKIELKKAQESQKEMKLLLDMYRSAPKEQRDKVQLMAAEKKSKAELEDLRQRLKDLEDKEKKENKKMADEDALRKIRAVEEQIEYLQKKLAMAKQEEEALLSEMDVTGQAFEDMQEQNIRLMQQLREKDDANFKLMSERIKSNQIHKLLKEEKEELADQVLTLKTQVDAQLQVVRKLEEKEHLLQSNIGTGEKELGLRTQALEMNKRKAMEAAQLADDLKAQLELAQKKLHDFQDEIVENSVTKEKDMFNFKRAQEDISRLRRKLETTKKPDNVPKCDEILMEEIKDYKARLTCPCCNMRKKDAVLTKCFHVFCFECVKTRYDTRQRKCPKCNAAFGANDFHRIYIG
UniProt O15258: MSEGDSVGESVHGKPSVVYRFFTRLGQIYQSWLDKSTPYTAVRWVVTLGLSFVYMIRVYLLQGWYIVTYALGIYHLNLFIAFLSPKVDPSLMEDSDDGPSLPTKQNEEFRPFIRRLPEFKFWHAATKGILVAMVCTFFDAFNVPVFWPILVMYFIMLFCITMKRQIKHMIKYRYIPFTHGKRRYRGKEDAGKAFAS
UniProt Q969G6: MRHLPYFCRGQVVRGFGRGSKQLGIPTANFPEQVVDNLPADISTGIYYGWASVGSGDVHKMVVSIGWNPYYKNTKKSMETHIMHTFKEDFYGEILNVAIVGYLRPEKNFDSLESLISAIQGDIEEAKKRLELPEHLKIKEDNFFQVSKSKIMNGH
UniProt Q8NDN9: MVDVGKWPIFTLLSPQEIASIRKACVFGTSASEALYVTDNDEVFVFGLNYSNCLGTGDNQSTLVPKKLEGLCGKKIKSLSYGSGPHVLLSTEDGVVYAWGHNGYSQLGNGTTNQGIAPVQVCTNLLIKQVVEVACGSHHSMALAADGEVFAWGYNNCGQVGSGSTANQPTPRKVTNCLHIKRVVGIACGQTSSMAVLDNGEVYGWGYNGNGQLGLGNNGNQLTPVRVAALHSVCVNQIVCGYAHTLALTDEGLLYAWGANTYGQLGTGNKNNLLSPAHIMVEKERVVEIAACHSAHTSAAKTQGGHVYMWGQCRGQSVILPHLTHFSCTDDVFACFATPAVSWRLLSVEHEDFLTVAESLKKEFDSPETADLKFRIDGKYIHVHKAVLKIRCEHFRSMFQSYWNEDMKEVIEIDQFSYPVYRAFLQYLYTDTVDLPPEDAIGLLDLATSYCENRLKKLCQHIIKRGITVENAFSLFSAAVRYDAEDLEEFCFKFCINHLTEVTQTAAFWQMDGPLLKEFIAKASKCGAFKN
UniProt O43567: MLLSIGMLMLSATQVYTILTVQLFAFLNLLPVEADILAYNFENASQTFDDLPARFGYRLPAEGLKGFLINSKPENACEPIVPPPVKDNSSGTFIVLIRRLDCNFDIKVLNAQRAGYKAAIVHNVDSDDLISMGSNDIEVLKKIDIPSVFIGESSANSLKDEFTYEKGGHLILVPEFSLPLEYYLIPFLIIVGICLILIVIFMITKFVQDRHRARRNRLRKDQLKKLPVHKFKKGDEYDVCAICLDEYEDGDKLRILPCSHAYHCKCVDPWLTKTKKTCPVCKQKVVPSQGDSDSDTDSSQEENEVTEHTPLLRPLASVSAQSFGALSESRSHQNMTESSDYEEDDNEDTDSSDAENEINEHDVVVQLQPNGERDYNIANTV
UniProt Q04864: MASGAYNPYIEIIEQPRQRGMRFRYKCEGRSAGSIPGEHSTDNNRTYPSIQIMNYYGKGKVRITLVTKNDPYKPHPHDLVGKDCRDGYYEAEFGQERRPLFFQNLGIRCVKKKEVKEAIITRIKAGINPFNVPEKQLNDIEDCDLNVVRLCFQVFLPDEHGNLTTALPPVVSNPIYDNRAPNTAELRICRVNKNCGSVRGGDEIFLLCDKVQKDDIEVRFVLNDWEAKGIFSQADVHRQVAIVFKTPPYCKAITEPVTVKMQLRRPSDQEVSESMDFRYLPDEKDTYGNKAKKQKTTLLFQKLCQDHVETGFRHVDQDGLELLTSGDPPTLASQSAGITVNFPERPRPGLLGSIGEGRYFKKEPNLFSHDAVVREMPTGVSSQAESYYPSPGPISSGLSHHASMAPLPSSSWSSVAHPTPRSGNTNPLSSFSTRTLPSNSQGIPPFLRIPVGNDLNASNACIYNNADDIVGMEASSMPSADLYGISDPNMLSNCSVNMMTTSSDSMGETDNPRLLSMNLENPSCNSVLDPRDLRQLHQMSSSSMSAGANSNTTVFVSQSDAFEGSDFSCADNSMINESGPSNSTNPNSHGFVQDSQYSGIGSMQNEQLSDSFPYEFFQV
UniProt P82980: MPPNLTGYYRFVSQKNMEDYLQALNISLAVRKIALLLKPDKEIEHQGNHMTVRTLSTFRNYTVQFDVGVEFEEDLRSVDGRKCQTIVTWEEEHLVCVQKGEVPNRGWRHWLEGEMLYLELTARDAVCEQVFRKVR
UniProt Q9P260: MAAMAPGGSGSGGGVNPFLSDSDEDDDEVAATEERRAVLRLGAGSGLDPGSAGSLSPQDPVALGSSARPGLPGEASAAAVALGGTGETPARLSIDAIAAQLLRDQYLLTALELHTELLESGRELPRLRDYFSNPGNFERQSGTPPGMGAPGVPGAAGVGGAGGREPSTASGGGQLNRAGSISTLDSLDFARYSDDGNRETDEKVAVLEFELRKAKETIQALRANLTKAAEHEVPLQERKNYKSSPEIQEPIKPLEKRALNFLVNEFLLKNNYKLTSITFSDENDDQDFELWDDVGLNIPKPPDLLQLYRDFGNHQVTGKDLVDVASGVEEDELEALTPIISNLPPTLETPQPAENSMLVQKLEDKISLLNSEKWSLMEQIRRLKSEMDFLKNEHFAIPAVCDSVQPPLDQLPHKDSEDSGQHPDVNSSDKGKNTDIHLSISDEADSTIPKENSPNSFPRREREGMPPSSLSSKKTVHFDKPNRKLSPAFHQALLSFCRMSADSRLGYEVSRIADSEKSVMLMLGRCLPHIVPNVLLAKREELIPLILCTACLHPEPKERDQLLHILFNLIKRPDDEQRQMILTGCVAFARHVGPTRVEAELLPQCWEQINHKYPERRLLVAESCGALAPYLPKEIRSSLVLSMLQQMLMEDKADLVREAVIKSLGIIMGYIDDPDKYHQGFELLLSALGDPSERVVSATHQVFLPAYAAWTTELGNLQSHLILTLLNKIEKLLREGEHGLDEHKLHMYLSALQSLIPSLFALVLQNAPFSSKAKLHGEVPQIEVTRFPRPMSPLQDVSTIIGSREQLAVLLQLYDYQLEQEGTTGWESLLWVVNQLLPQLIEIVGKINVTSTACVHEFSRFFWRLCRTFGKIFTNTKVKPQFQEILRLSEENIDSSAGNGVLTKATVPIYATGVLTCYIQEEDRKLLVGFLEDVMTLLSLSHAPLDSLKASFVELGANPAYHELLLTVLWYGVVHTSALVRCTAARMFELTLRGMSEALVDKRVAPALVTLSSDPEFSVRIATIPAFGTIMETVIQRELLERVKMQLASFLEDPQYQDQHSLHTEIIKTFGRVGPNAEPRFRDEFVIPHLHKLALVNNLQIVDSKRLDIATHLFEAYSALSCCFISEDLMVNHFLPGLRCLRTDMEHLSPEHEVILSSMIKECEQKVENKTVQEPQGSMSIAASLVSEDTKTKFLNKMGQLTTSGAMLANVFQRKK

Legend:
Experiment in all cases: log2 fold change, soluble protein after heating vs DMSO (PISA); higher = thermal stabilisation; K562 cells, 10 uM, 30 min; active = over 0.2 and 3.5 SD of the protein, either way, in both replicates (recomputed)
saracatinib = compound: CN1CCN(CCOc2cc(OC3CCOCC3)c3c(Nc4c(Cl)ccc5c4OCO5)ncnc3c2)CC1 [saracatinib]
In short: (§1)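 Values are thermal stability changes relative to control samples and are taken from duplicates. They are stated as log2 fold changes. Before quantification by TMTpro 16plex LC-MS/MS with equalised channel sums, K562 cells at 2×10^6 cells/mL were treated with 10 μM compound for 30 min, heated in aliquots for 3 min across 48°C-58°C, pooled, extracted in PBS with 0.5% NP-40 at 4°C, and centrifuged at 21,000xg for 90 min to give the soluble supernatant.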

sotrastaurin = compound: CN1CCN(c2nc(C3=C(c4c[nH]c5ccccc45)C(=O)NC3=O)c3ccccc3n2)CC1 [sotrastaurin]
In short: as §1

alvocidib = compound: CN1CC[C@H](c2c(O)cc(O)c3c(=O)cc(-c4ccccc4Cl)oc23)[C@H](O)C1 [alvocidib]
In short: as §1

Tubastatin A = compound: CN1CCc2c(c3ccccc3n2Cc2ccc(C(=O)NO)cc2)C1 [Tubastatin A]
In short: as §1

[1] = compound: CNC(=O)C1=CC=CC=C1NC2=NC(=NC=C2Cl)NC3=C(C=C(C=C3)N4CCOCC4)OC
In short: as §1

defactinib = compound: CNC(=O)c1ccc(Nc2ncc(C(F)(F)F)c(NCc3nccnc3N(C)S(C)(=O)=O)n2)cc1 [defactinib]
In short: as §1

rucaparib = compound: CNCc1ccc(-c2[nH]c3cc(F)cc4c3c2CCNC4=O)cc1 [rucaparib]
In short: as §1

[2] = compound: CNc1nc(-c2ccc3c(N)n[nH]c3c2)cc(N2C[C@@H](C(=O)NC3CCCCC3)CC[C@H]2C)n1
In short: as §1

encorafenib = compound: COC(=O)N[C@@H](C)CNc1nccc(-c2cn(C(C)C)nc2-c2cc(Cl)cc(NS(C)(=O)=O)c2F)n1 [encorafenib]
In short: as §1

[3] = compound: COC(=O)[C@H](CCSC)NC(=O)C1=C(C=C(C=C1)NC[C@H](CS)N)C2=CC=CC=C2
In short: as §1

[4] = compound: COC1=CC=C(C=C1)CN2C=CC3=C2C=C(C=C3)C(=O)NO
In short: as §1

filanesib = compound: CON(C)C(=O)N1N=C(c2cc(F)ccc2F)S[C@@]1(CCCN)c1ccccc1 [filanesib]
In short: as §1

zotarolimus = compound: CO[C@H]1C[C@@H]2CC[C@@H](C)[C@@](O)(O2)C(=O)C(=O)N2CCCC[C@H]2C(=O)O[C@H]([C@H](C)C[C@@H]2CC[C@H](n3cnnn3)[C@H](OC)C2)CC(=O)[C@H](C)/C=C(\C)[C@@H](O)[C@@H](OC)C(=O)[C@H](C)C[C@H](C)/C=C/C=C/C=C/1C [zotarolimus]
In short: as §1

idasanutlin = compound: COc1cc(C(=O)O)ccc1NC(=O)[C@@H]1N[C@@H](CC(C)(C)C)[C@](C#N)(c2ccc(Cl)cc2F)[C@H]1c1cccc(Cl)c1F [idasanutlin]
In short: as §1

alisertib = compound: COc1cc(Nc2ncc3c(n2)-c2ccc(Cl)cc2C(c2c(F)cccc2OC)=NC3)ccc1C(=O)O [alisertib]
In short: as §1

[5] = compound: COc1cc2nc(-c3cc(F)ccc3O)nc(N[C@@H]3CNC[C@H]3C(C)(C)O)c2cc1OC
In short: as §1

gefitinib = compound: COc1cc2ncnc(Nc3ccc(F)c(Cl)c3)c2cc1OCCCN1CCOCC1 [gefitinib]
In short: as §1

[6] = compound: COc1cccc2cc(-c3nc([C@H]4CC[C@H](C(=O)O)CC4)n4ncnc(N)c34)[nH]c12
In short: as §1

lapatinib = compound: CS(=O)(=O)CCNCc1ccc(-c2ccc3ncnc(Nc4ccc(OCc5cccc(F)c5)c(Cl)c4)c3c2)o1 [lapatinib]
In short: as §1

pictilisib = compound: CS(=O)(=O)N1CCN(Cc2cc3nc(-c4cccc5[nH]ncc45)nc(N4CCOCC4)c3s2)CC1 [pictilisib]
In short: as §1

Measured: log2 fold change

RENBP (UniProt P51606)
inactive: saracatinib 0.016 | sotrastaurin 0.03 | alvocidib -0.036 | Tubastatin A 0.012 | [1] -0.021 | defactinib 0.005 | rucaparib -0.077 | [2] -0.032 | encorafenib -0.011 | [3] 0.027 | [4] -0.049 | filanesib -0.035 | zotarolimus 0.058 | idasanutlin -0.042 | alisertib -0.023 | [5] -0.189 | gefitinib 0.032 | [6] 0.06 | lapatinib -0.031 | pictilisib -0.06

RNF138 (UniProt Q8WVD3)
inactive: saracatinib -0.001 | sotrastaurin 0.042 | alvocidib -0.208 | Tubastatin A -0.003 | [1] -0.063 | defactinib -0.204 | rucaparib -0.022 | [2] -0.008 | encorafenib 0.018 | [3] 0.126 | filanesib -0.027 | zotarolimus 0 | idasanutlin 0.054 | alisertib -0.055 | [5] -0.154 | gefitinib -0.189 | [6] 0.041 | lapatinib -0.006 | pictilisib 0.232

RNF146 (UniProt Q9NTX7)
inactive: saracatinib 0.011 | sotrastaurin 0.026 | alvocidib 0.064 | Tubastatin A -0.035 | [1] 0.043 | defactinib -0.019 | rucaparib -0.017 | [2] -0.06 | encorafenib -0.185 | [3] -0.015 | [4] -0.132 | filanesib -0.01 | zotarolimus -0.106 | idasanutlin 0.062 | [5] 0.054 | lapatinib -0.05

RNF166 (UniProt Q96A37)
inactive: saracatinib -0.042 | sotrastaurin -0.017 | alvocidib 0.081 | Tubastatin A 0 | [1] -0.005 | defactinib 0.009 | [2] -0.051 | [3] -0.066 | filanesib 0.051 | zotarolimus -0.025 | idasanutlin 0.064 | alisertib -0.007 | [5] 0.051 | [6] -0.007 | lapatinib 0.096 | pictilisib -0.047

RCOR1 (UniProt Q9UKL0)
inactive: saracatinib -0.011 | sotrastaurin -0.047 | Tubastatin A 0.028 | [1] -0.017 | defactinib -0.119 | rucaparib -0.005 | [2] 0.073 | encorafenib 0 | [3] -0.002 | [4] -0.039 | filanesib 0.002 | zotarolimus -0.044 | idasanutlin 0 | alisertib 0.013 | [5] 0.003 | gefitinib -0.002 | [6] 0.015 | lapatinib 0.019 | pictilisib 0.005

RHOC (UniProt P08134)
inactive: saracatinib -0.008 | sotrastaurin 0.045 | alvocidib -0.006 | Tubastatin A -0.003 | [1] 0.176 | defactinib 0 | rucaparib -0.054 | [2] -0.021 | encorafenib -0.016 | [3] -0.004 | [4] -0.017 | filanesib -0.032 | zotarolimus -0.024 | idasanutlin 0.012 | alisertib -0.047 | [5] 0.025 | gefitinib -0.005 | [6] 0.063 | lapatinib -0.007 | pictilisib 0.025

RNF121 (UniProt Q9H920)
inactive: saracatinib 0.035 | sotrastaurin 0.083 | alvocidib 0.008 | Tubastatin A -0.058 | [1] 0.032 | defactinib -0.079 | rucaparib -0.097 | [2] 0.064 | encorafenib 0.046 | [3] -0.053 | [4] 0.082 | filanesib -0.036 | zotarolimus 0.004 | idasanutlin -0.086 | alisertib -0.054 | [5] -0.052 | gefitinib 0.035 | [6] 0.084 | lapatinib 0.021 | pictilisib -0.037

RNF20 (UniProt Q5VTR2)
inactive: saracatinib 0.018 | sotrastaurin -0.193 | alvocidib -0.146 | Tubastatin A 0.111 | [1] 0.087 | rucaparib -0.015 | [2] -0.137 | encorafenib -0.125 | [4] 0.008 | filanesib 0.124 | zotarolimus -0.052 | idasanutlin 0 | alisertib 0.25 | [5] -0.005 | gefitinib -0.062 | [6] 0.147 | lapatinib 0.068 | pictilisib 0.048

RER1 (UniProt O15258)
inactive: saracatinib 0.13 | sotrastaurin 0.014 | alvocidib -0.019 | Tubastatin A -0.011 | [1] 0.036 | defactinib -0.032 | rucaparib 0.068 | [2] -0.035 | encorafenib -0.04 | [3] -0.031 | [4] 0.004 | filanesib -0.077 | zotarolimus 0.046 | idasanutlin 0.183 | alisertib 0.029 | [5] -0.05 | gefitinib -0.007 | [6] 0 | lapatinib 0.014 | pictilisib -0.192

RFK (UniProt Q969G6)
inactive: saracatinib -0.01 | sotrastaurin 0.02 | alvocidib 0.032 | Tubastatin A -0.02 | [1] -0.022 | defactinib -0.016 | rucaparib 0.032 | [2] -0.041 | encorafenib 0.073 | [3] 0.016 | [4] 0.078 | filanesib 0 | zotarolimus 0.006 | idasanutlin -0.006 | alisertib 0.029 | [5] -0.037 | gefitinib -0.034 | [6] 0.124 | lapatinib 0.049 | pictilisib 0.002

REEP3 (UniProt Q6NUK4)
inactive: saracatinib -0.036 | sotrastaurin -0.176 | alvocidib -0.067 | Tubastatin A 0.029 | [1] 0.056 | defactinib 0.001 | rucaparib 0.238 | [2] -0.098 | encorafenib -0.081 | [3] 0.062 | [4] -0.099 | filanesib 0.006 | zotarolimus 0.019 | idasanutlin 0.096 | alisertib -0.346 | [5] 0.001 | gefitinib 0.024 | [6] 0.005 | lapatinib -0.014 | pictilisib 0.069

RCBTB1 (UniProt Q8NDN9)
inactive: saracatinib -0.042 | sotrastaurin 0.015 | alvocidib -0.154 | [1] 0.109 | [2] -0.217 | filanesib -0.147 | zotarolimus -0.087

2 records picked at random from those above, as already listed:
RFK (UniProt Q969G6)
inactive: saracatinib -0.01 | sotrastaurin 0.02 | alvocidib 0.032 | Tubastatin A -0.02 | [1] -0.022 | defactinib -0.016 | rucaparib 0.032 | [2] -0.041 | encorafenib 0.073 | [3] 0.016 | [4] 0.078 | filanesib 0 | zotarolimus 0.006 | idasanutlin -0.006 | alisertib 0.029 | [5] -0.037 | gefitinib -0.034 | [6] 0.124 | lapatinib 0.049 | pictilisib 0.002

RNF20 (UniProt Q5VTR2)
inactive: saracatinib 0.018 | sotrastaurin -0.193 | alvocidib -0.146 | Tubastatin A 0.111 | [1] 0.087 | rucaparib -0.015 | [2] -0.137 | encorafenib -0.125 | [4] 0.008 | filanesib 0.124 | zotarolimus -0.052 | idasanutlin 0 | alisertib 0.25 | [5] -0.005 | gefitinib -0.062 | [6] 0.147 | lapatinib 0.068 | pictilisib 0.048

The list continues:

RFC4 (UniProt P35249)
inactive: saracatinib 0.013 | sotrastaurin -0.009 | alvocidib -0.051 | Tubastatin A -0.027 | [1] -0.059 | defactinib -0.05 | rucaparib 0.027 | [2] -0.023 | encorafenib 0 | [3] -0.007 | [4] 0.01 | filanesib -0.08 | zotarolimus 0.002 | idasanutlin 0.023 | alisertib -0.047 | [5] 0.016 | gefitinib -0.029 | [6] 0.034 | lapatinib -0.036 | pictilisib -0.04

RELN (UniProt P78509)
inactive: saracatinib 0.019 | sotrastaurin 0.031 | alvocidib 0.021 | Tubastatin A 0.028 | [1] 0.033 | defactinib 0.044 | rucaparib 0.06 | [2] -0.029 | encorafenib -0.001 | [3] -0.048 | [4] -0.038 | filanesib 0.074 | zotarolimus -0.007 | idasanutlin 0.022 | alisertib 0.325 | [5] -0.028 | gefitinib -0.071 | [6] -0.082 | lapatinib 0.185 | pictilisib 0.026

RNF13 (UniProt O43567)
inactive: saracatinib -0.143 | sotrastaurin -0.032 | alvocidib 0.05 | Tubastatin A 0.045 | defactinib 0.052 | rucaparib -0.027 | [2] -0.075 | encorafenib 0.18 | [3] -0.055 | [4] -0.093 | filanesib -0.032 | zotarolimus -0.132 | idasanutlin 0.047

REL (UniProt Q04864)
inactive: saracatinib -0.028 | sotrastaurin -0.049 | Tubastatin A 0.008 | [1] 0.052 | defactinib -0.12 | rucaparib 0.089 | [2] -0.013 | encorafenib -0.046 | [3] -0.016 | [4] -0.006 | filanesib 0.051 | zotarolimus 0.004 | idasanutlin 0.033 | alisertib 0.068 | [5] 0.062 | gefitinib 0.148 | [6] -0.086 | lapatinib -0.031 | pictilisib -0.243

RBP5 (UniProt P82980)
inactive: saracatinib -0.011 | sotrastaurin 0.205 | alvocidib 0 | Tubastatin A -0.116 | [1] 0.033 | rucaparib -0.259 | [2] 0.062 | encorafenib 0.19 | [4] 0.032 | filanesib -0.152 | zotarolimus 0.067 | idasanutlin -0.026 | alisertib -0.165 | [5] -0.109 | gefitinib 0.04 | [6] -0.01 | lapatinib -0.023 | pictilisib -0.187

RELCH isoform 2 (UniProt Q9P260)
inactive: saracatinib -0.097 | sotrastaurin -0.039 | alvocidib -0.043 | Tubastatin A -0.141 | [1] -0.045 | defactinib 0.027 | rucaparib 0.097 | [2] 0.039 | encorafenib -0.075 | [3] -0.196 | filanesib -0.022 | zotarolimus -0.068 | idasanutlin -0.034 | alisertib -0.004 | gefitinib -0.006 | [6] 0.159 | pictilisib 0.033
